In article PMC11655532:
No constants are given. Whether binding was seen depends on the method and setting. Binding seen in cells or lysates may run through a third protein. Some results given as binding are weak or reduced against the parent protein; the word gives no strength.

Amino acid sequences for entries named in this document (tags omitted).
UniProt Q9UBL6: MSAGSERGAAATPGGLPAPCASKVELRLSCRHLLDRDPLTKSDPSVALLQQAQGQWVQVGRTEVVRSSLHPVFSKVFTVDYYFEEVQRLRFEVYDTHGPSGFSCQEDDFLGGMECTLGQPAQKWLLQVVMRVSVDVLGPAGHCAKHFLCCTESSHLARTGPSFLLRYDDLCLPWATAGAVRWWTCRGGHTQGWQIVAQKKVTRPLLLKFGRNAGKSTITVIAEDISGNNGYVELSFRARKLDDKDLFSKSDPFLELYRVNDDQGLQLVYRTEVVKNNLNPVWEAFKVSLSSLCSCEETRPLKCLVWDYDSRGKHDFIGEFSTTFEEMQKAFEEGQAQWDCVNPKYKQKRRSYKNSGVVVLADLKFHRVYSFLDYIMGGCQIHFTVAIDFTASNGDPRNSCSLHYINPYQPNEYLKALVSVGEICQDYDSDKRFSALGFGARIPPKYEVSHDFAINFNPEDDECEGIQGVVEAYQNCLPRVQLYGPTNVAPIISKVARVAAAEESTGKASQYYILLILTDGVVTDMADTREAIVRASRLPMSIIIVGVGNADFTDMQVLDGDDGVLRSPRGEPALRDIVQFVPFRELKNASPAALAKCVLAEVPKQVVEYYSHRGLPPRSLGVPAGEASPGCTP

Legend:
CPNE7 (copine7) (human) [1] = biological target: CPNE7 (copine7) (human) (UniProt Q9UBL6); experiment: co-IP; 293T cell lysate (RIPA buffer with PMSF), 2 ug antibody overnight at 4°C, Protein A/G beads, Western blot
CPNE7 (copine7) (human) [2] = biological target: CPNE7 (copine7) (human) (UniProt Q9UBL6); experiment: co-IP; cells not given; with or without gramicidin at 8 nM; Western blot
CPNE7 (copine7) (human) [3] = biological target: CPNE7 (copine7) (human) (UniProt Q9UBL6); experiment: co-IP; HCT116 cell lysate (RIPA buffer with PMSF), 2 ug antibody overnight at 4°C, Protein A/G beads, Western blot

Measured: binding

B1: NONO (p54/nrb) (protein, UniProt Q15233 1-471)
chain: MQSNKTFNLEKQNHTPRKHHQHHHQQQHHQQQQQQPPPPPIPANGQQASSQNEGLTIDLKNFRKPGEKTFTQRSRLFVGNLPPDITEEEMRKLFEKYGKAGEVFIHKDKGFGFIRLETRTLAEIAKVELDNMPLRGKQLRVRFACHSASLTVRNLPQYVSNELLEEAFSVFGQVERAVVIVDDRGRPSGKGIVEFSGKPAARKALDRCSEGSFLLTTFPRPVTVEPMDQLDDEEGLPEKLVIKNQQFHKEREQPPRFAQPGSFEYEYAMRWKALIEMEKQQQDQVDRNIKEAREKLEMEMEAARHEHQVMLMRQDLMRRQEELRRMEELHNQEVQKRKQLELRQEEERRRREEEMRRQQEEMMRRQQEGFKGTFPDAREQEIRMGQMAMGGAMGINNRGAMPPAPVPAGTPAPPGPATMMPDGTLGLTPPTTERFGQAATMEGIGAIGGTPPAFNRAAPGAEFAPNKRRRY
binds: all assays above
